The text below walks through data of paper PMC7599071.

Sequences of proteins named here, by UniProt entry; tags and fusion partners are left off.
UniProt Q96EQ9: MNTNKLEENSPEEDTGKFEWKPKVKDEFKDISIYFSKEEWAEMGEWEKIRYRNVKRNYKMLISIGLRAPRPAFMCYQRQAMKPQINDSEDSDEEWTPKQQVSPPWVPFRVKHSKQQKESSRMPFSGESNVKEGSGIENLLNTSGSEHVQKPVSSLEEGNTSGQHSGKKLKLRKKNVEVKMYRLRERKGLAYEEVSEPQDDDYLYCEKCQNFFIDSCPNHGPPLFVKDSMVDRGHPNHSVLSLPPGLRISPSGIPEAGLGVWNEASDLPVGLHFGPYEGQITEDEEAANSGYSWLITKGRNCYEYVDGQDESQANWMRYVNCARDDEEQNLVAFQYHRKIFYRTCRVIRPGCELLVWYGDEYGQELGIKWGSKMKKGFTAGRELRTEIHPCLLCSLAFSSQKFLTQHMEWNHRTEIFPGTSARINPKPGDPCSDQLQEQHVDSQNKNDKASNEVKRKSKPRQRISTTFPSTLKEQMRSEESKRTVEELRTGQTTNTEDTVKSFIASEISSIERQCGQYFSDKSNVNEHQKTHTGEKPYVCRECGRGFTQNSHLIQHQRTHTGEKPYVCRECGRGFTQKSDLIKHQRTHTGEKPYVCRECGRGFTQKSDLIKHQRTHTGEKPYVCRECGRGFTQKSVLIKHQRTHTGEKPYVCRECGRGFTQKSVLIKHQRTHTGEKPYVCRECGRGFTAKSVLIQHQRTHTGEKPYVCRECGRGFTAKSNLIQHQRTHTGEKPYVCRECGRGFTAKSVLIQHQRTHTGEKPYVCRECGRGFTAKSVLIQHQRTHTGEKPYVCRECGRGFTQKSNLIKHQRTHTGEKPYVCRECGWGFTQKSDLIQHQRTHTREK

These are yes or no findings as the source states them, for the method shown. In cells and extracts the contact can be indirect. A yes stands for co-enrichment or nearness to the bait. Other partners may have been found.

This assay concerns the target PRDM9 (endogenous in mouse testis, B6 strain) (mouse (endogenous in B6 testis)) (UniProt Q96EQ9). Put plainly: affinity purification with mass spectrometry; nuclear extracts of testes from 12 to 13 dpp B6 mice, without (rep1) or after incubation with benzonase (rep2); IP with anti-PRDM9 antibody or normal rabbit serum (mock); mass spectrometry.

B1: HELLS (endogenous in mouse testis) (protein, UniProt Q60848 1-821)
chain: MAEQTEPAVITPAMLEEEEQLEAAGLEKERKMLEEAQKSWDRESTEIRYRRLQHLLEKSNIYSKFLLTKMEQQQLEEQKKKEKLEKKKRSLKLTEGKSLVDGNGEKPVMKKKRGREDESYNISEVMSKEEILSVAKKHKDNEDESSSTTSLCVEDIQKNKDSNSMIKDRLSQTVRQNSKFFFDPVRKCNGQPVPFQQPKHFTGGVMRWYQVEGMEWLRMLWENGINGILADEMGLGKTVQCIATIALMIQRGVPGPFLVCGPLSTLPNWMAEFKRFTPEIPTLLYHGTREDRRKLVKNIHKRQGTLQIHPVVVTSFEIAMRDQNALQHCYWKYLIVDEGHRIKNMKCRLIRELKRFNADNKLLLTGTPLQNNLSELWSLLNFLLPDVFDDLKSFESWFDITSLSETAEDIIAKEREQNVLHMLHQILTPFLLRRLKSDVALEVPPKREVVVYAPLCNKQEIFYTAIVNRTIANMFGSCEKETVELSPTGRPKRRSRKSINYSELDQFPSELEKLISQIQPEVNRERTVVEGNIPIESEVNLKLRNIMMLLRKCCNHPYMIEYPIDPVTQEFKIDEELVTNSGKFLILDRMLPELKKRGHKVLVFSQMTSMLDILMDYCHLRNFIFSRLDGSMSYSEREKNIYSFNTDPDVFLFLVSTRAGGLGINLTAADTVIIYDSDWNPQSDLQAQDRCHRIGQTKPVVVYRLVTANTIDQKIVERAAAKRKLEKLIIHKNHFKGGQSGLSQSKNFLDAKELMELLKSRDYEREVKGSREKVISDEDLELLLDRSDLIDQMKASRPIKGKTGIFKILENSEDSSAECLF
On to B1, for which the binding result is reported as “binds”.
